Two substances from article PMC3146467 can be followed below.

Sequences of proteins named here, by UniProt entry; tags and fusion partners are left off. A change or cut given only in a name is not applied to a line headed by its entry. A line that says so, or that is headed by a name, gives the form on record, which may keep a tag or linker.
UniProt P17325: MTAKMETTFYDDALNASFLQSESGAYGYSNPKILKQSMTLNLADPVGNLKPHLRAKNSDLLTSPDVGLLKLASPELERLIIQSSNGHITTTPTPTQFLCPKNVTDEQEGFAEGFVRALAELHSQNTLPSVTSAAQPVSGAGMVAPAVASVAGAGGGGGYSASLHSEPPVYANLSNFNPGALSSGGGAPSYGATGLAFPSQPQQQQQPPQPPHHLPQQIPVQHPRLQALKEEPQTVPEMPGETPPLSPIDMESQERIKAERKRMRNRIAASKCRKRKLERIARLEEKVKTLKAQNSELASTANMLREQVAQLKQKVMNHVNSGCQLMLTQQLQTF
UniProt P12841: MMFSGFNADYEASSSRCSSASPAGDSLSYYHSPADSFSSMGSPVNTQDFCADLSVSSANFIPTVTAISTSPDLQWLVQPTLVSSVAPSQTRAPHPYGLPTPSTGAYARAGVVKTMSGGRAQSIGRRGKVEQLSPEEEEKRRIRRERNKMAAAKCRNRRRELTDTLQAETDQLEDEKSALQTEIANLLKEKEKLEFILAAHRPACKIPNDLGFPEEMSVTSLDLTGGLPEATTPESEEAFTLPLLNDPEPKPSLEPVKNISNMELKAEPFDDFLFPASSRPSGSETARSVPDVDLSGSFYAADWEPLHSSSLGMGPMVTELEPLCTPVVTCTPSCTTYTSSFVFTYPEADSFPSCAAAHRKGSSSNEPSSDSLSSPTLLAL
UniProt P84022: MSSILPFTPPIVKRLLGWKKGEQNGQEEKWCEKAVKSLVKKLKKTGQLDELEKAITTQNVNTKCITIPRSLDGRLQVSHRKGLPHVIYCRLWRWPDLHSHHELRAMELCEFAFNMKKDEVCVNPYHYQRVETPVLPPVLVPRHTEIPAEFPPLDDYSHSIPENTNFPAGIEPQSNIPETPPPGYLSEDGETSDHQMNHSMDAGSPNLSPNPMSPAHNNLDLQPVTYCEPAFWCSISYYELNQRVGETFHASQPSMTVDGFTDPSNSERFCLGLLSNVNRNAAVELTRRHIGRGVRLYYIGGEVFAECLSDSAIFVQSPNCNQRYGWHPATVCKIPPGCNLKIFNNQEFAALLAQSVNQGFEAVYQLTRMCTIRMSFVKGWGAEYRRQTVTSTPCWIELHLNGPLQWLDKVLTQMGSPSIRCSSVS
Smad3 (K40, 41, 43, 44A) (P84022, form named): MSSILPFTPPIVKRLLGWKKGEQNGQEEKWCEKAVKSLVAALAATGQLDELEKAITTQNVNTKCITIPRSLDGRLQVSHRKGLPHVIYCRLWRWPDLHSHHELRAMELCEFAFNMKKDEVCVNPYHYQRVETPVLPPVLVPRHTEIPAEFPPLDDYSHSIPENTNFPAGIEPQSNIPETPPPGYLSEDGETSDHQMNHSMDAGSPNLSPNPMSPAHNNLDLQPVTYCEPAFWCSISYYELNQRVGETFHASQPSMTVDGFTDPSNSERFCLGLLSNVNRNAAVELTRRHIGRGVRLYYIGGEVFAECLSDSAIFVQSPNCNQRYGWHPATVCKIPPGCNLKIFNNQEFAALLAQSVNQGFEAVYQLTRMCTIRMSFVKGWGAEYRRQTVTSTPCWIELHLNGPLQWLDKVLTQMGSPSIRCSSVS

Experiment [1] addresses c-Jun (of the immunoprecipitation with wild and mutant Smad3, Figure 7B) (not stated (Xenopus or rat cDNA cloned)) (UniProt P17325). The experiment is described as follows: co-IP; Xenopus embryo lysate; c-Jun with wild Smad3 or Smad3 mutants; immunoprecipitation and western blot.
A further experiment addresses rat c-Fos (rat) (UniProt P12841). The experiment is described as follows: co-IP; whole Xenopus embryos injected with AP-1 (flag-tagged rat c-jun and rat c-fos mRNAs) alone or together with Smad3 mRNA, stage 10.5; lysis buffer 50 mM Tris pH 7.4, 150 mM NaCl, 1% NP-40, 0.25% sodium deoxycholate, 0.1% SDS; IP with anti-Flag, anti-Myc or anti-c-Fos, Protein A/G agarose, western ….

In experiment [2] the target is flag-tagged rat c-Jun (rat) (UniProt P17325). Described as above.

These are yes or no findings as the source states them, for the method shown. Binding seen in cells or lysates may run through a third protein. Some results given as binding are weak or reduced against the parent protein; the word gives no strength.

Turning to “Smad3 (K40, 41, 43, 44A) (from UniProt P84022 1-425)”, in experiment [1], the binding entry is “no binding”.

As to 6myc-Smad3 (from UniProt P84022 1-425), the binding entry (in experiment [1]; in the experiment with rat c-Fos (rat); in experiment [2]) was “binds” in each case.
